Reference: PMC7515897
Results are given in words; binding and its absence hold for the method and conditions named. In cells and extracts the contact can be indirect. Here binding means that the protein was enriched with, or labelled near, the bait; the list need not be complete. Each block holds one molecule with its values, some of them ahead of it.

Protein sequences, listed by entry. Tags and fused reporters are not part of them. Residues count along the entry.
UniProt P21333: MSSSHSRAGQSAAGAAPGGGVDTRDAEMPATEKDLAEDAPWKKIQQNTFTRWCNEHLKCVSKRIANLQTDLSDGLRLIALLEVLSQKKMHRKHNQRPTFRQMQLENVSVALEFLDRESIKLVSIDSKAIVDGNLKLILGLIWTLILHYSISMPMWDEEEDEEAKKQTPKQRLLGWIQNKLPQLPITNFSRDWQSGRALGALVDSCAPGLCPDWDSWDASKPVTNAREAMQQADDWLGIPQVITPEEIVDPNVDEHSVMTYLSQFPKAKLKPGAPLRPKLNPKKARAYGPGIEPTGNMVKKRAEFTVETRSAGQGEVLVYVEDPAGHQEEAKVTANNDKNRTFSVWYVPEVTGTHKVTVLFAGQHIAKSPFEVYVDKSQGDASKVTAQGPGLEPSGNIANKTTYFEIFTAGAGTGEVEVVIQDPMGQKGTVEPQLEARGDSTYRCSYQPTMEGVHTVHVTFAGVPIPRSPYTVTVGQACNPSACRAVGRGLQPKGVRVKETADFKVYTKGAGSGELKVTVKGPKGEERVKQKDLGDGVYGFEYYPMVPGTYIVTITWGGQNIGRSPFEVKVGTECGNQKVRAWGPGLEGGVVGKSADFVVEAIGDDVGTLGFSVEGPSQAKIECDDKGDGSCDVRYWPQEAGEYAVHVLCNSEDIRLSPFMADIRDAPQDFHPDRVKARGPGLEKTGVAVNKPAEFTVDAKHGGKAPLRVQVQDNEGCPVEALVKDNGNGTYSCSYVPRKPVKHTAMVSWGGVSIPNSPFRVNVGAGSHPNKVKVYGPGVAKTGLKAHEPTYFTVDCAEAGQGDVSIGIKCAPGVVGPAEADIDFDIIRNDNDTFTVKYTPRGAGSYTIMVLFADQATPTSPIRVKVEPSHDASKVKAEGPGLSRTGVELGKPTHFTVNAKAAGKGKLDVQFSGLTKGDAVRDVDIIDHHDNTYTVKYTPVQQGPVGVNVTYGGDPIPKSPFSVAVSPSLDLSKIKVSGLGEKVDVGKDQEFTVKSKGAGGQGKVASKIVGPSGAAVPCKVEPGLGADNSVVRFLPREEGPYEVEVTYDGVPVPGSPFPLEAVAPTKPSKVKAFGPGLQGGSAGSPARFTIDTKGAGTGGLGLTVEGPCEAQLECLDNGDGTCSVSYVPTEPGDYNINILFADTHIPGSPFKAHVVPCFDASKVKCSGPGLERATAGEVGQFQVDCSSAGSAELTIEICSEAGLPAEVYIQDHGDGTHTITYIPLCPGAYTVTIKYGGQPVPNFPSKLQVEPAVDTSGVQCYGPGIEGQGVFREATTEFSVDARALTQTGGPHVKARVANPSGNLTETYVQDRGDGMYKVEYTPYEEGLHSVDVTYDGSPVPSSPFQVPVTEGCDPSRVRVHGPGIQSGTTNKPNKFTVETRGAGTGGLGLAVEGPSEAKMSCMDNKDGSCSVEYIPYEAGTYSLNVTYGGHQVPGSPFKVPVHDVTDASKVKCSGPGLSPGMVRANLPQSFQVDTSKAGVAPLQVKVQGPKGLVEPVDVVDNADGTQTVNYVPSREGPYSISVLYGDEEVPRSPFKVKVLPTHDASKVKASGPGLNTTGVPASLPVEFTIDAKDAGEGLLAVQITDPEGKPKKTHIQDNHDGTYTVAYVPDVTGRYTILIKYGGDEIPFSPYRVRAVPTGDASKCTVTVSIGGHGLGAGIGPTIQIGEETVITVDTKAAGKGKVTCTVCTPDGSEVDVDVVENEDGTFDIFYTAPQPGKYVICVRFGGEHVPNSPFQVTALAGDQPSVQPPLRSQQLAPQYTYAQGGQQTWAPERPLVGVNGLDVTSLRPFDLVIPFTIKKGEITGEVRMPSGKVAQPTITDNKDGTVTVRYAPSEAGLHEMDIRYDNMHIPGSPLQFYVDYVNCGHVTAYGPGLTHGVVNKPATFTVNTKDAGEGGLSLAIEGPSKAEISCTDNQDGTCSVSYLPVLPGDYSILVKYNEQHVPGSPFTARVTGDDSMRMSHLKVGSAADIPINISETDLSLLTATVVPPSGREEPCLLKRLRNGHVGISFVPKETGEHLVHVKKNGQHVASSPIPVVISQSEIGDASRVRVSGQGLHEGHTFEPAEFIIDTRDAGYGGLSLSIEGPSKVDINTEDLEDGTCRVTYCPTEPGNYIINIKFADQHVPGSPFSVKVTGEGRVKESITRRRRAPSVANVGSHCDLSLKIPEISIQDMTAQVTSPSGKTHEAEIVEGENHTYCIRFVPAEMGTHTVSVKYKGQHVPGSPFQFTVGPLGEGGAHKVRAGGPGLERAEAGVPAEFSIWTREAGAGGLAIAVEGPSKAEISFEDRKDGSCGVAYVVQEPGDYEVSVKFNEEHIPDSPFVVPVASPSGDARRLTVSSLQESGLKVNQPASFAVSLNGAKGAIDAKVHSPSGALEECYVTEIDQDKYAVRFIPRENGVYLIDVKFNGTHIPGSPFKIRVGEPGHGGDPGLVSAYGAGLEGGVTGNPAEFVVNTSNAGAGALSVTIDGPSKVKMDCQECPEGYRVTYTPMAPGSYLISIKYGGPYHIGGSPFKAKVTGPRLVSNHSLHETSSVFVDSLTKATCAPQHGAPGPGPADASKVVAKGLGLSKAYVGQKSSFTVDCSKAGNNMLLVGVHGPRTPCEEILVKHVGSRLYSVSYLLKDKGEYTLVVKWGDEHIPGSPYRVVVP
UniProt P02545, residues 1-646: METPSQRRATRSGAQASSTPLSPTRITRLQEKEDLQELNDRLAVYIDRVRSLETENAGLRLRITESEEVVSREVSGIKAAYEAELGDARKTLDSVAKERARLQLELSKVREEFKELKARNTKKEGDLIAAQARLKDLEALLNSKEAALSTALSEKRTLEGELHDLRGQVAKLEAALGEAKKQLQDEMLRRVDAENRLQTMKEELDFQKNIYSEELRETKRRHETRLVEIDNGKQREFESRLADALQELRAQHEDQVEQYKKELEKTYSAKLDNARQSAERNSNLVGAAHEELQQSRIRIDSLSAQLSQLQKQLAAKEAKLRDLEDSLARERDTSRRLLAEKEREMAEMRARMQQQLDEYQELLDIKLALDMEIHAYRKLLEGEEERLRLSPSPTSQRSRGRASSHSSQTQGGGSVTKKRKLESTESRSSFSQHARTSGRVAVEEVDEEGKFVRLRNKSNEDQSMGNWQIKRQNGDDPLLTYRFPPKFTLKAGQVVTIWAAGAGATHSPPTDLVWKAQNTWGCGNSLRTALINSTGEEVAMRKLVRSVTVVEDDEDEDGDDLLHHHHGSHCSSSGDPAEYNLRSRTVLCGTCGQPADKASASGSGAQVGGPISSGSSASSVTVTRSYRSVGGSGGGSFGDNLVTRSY
UniProt P35579: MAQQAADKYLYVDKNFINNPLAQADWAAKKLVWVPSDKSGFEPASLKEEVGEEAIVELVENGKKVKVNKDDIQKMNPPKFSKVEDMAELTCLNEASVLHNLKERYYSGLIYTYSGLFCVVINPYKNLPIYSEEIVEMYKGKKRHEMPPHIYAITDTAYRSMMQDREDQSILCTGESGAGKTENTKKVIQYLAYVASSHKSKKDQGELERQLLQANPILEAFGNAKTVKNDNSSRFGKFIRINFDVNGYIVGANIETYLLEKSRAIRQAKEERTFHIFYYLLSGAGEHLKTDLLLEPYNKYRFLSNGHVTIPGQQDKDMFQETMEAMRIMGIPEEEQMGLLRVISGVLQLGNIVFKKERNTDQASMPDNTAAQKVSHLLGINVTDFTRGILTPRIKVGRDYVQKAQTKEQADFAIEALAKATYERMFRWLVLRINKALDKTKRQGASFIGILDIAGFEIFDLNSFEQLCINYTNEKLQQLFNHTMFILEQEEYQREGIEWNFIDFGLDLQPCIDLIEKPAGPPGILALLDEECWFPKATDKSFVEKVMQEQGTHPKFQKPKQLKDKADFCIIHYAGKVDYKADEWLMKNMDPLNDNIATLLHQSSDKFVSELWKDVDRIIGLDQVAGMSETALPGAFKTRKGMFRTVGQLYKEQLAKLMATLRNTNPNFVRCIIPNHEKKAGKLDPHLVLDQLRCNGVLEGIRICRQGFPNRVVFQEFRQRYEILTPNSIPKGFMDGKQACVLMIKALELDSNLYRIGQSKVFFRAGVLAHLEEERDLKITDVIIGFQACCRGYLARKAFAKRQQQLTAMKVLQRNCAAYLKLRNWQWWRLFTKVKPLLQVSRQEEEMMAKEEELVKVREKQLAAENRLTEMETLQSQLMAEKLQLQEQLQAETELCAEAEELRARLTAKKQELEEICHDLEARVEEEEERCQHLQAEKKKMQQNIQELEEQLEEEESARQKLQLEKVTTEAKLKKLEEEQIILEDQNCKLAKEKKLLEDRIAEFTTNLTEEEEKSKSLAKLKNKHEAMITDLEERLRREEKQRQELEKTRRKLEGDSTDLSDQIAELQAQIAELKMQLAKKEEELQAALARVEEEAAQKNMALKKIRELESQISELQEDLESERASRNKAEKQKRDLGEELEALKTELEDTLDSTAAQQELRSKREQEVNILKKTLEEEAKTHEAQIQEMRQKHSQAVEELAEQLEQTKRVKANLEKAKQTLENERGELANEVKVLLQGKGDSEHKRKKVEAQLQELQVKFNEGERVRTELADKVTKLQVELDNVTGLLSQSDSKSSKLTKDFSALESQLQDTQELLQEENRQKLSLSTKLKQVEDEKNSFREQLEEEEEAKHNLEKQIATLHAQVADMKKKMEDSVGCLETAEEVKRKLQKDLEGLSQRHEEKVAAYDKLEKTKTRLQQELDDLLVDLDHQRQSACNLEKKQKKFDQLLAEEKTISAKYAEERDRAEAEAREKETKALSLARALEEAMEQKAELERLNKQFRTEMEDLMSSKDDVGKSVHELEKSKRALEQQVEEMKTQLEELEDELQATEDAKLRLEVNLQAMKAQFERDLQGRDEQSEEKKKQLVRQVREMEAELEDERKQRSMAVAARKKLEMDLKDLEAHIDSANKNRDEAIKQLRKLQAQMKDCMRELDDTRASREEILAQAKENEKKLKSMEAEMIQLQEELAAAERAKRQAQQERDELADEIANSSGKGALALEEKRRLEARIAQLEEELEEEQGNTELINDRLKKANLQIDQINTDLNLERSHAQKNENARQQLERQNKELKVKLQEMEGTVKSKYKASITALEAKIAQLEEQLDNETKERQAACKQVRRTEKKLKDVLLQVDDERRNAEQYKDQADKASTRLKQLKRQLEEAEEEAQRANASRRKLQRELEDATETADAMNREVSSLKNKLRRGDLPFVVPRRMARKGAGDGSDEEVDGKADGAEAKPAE
UniProt P08670: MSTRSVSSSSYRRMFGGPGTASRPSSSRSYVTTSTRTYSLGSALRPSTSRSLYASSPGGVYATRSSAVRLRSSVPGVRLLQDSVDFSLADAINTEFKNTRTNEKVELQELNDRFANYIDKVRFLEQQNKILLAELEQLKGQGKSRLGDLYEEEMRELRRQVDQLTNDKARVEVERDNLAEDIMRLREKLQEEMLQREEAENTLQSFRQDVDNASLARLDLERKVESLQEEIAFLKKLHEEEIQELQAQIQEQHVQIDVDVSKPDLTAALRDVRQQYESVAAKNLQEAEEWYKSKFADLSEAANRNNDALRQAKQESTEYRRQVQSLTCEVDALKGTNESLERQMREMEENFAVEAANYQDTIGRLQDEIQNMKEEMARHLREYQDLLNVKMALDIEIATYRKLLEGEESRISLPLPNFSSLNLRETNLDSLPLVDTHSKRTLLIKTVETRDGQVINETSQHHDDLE

Target: β2-adrenergic receptor (human (endogenous in HCC tissue and SMMC-7721)) (UniProt P07550)
Assay: affinity purification with mass spectrometry; immunoprecipitation-mass spectrometry (IP-MS) of β2-AR from HCC tissues

binding: binds
Molecule: FLNA (from UniProt P21333 1-2647)

binding: binds
Molecule: HS90A (from UniProt P07900 1-732)

binding: binds
Molecule: LMNA (from UniProt P02545 1-646)

binding: binds
Molecule: MYH9 (from UniProt P35579 1-1960)

binding: binds
Molecule: VIME (from UniProt P08670 1-466)

binding: binds
B1: CPSM (protein, UniProt P31327 39-1500)
chain: LSVKAQTAHIVLEDGTKMKGYSFGHPSSVAGEVVFNTGLGGYPEAITDPAYKGQILTMANPIIGNGGAPDTTALDELGLSKYLESNGIKVSGLLVLDYSKDYNHWLATKSLGQWLQEEKVPAIYGVDTRMLTKIIRDKGTMLGKIEFEGQPVDFVDPNKQNLIAEVSTKDVKVYGKGNPTKVVAVDCGIKNNVIRLLVKRGAEVHLVPWNHDFTKMEYDGILIAGGPGNPALAEPLIQNVRKILESDRKEPLFGISTGNLITGLAAGAKTYKMSMANRGQNQPVLNITNKQAFITAQNHGYALDNTLPAGWKPLFVNVNDQTNEGIMHESKPFFAVQFHPEVTPGPIDTEYLFDSFFSLIKKGKATTITSVLPKPALVASRVEVSKVLILGSGGLSIGQAGEFDYSGSQAVKAMKEENVKTVLMNPNIASVQTNEVGLKQADTVYFLPITPQFVTEVIKAEQPDGLILGMGGQTALNCGVELFKRGVLKEYGVKVLGTSVESIMATEDRQLFSDKLNEINEKIAPSFAVESIEDALKAADTIGYPVMIRSAYALGGLGSGICPNRETLMDLSTKAFAMTNQILVEKSVTGWKEIEYEVVRDADDNCVTVCNMENVDAMGVHTGDSVVVAPAQTLSNAEFQMLRRTSINVVRHLGIVGECNIQFALHPTSMEYCIIEVNARLSRSSALASKATGYPLAFIAAKIALGIPLPEIKNVVSGKTSACFEPSLDYMVTKIPRWDLDRFHGTSSRIGSSMKSVGEVMAIGRTFEESFQKALRMCHPSIEGFTPRLPMNKEWPSNLDLRKELSEPSSTRIYAIAKAIDDNMSLDEIEKLTYIDKWFLYKMRDILNMEKTLKGLNSESMTEETLKRAKEIGFSDKQISKCLGLTEAQTRELRLKKNIHPWVKQIDTLAAEYPSVTNYLYVTYNGQEHDVNFDDHGMMVLGCGPYHIGSSVEFDWCAVSSIRTLRQLGKKTVVVNCNPETVSTDFDECDKLYFEELSLERILDIYHQEACGGCIISVGGQIPNNLAVPLYKNGVKIMGTSPLQIDRAEDRSIFSAVLDELKVAQAPWKAVNTLNEALEFAKSVDYPCLLRPSYVLSGSAMNVVFSEDEMKKFLEEATRVSQEHPVVLTKFVEGAREVEMDAVGKDGRVISHAISEHVEDAGVHSGDATLMLPTQTISQGAIEKVKDATRKIAKAFAISGPFNVQFLVKGNDVLVIECNLRASRSFPFVSKTLGVDFIDVATKVMIGENVDEKHLPTLDHPIIPADYVAIKAPMFSWPRLRDADPILRCEMASTGEVACFGEGIHTAFLKAMLSTGFKIPQKGILIGIQQSFRPRFLGVAEQLHNEGFKLFATEATSDWLNANNVPATPVAWPSQEGQNPSLSSIRKLIRDGSIDLVINLPNNNTKFVHDNYVIRRTAVDSGIPLLTNFQVTKLFAEAVQKSRKVDSKSLFHYRQYSAGKAA

binding: binds
B2: ANXA6 (protein, UniProt P08133 1-673)
chain: MAKPAQGAKYRGSIHDFPGFDPNQDAEALYTAMKGFGSDKEAILDIITSRSNRQRQEVCQSYKSLYGKDLIADLKYELTGKFERLIVGLMRPPAYCDAKEIKDAISGIGTDEKCLIEILASRTNEQMHQLVAAYKDAYERDLEADIIGDTSGHFQKMLVVLLQGTREEDDVVSEDLVQQDVQDLYEAGELKWGTDEAQFIYILGNRSKQHLRLVFDEYLKTTGKPIEASIRGELSGDFEKLMLAVVKCIRSTPEYFAERLFKAMKGLGTRDNTLIRIMVSRSELDMLDIREIFRTKYEKSLYSMIKNDTSGEYKKTLLKLSGGDDDAAGQFFPEAAQVAYQMWELSAVARVELKGTVRPANDFNPDADAKALRKAMKGLGTDEDTIIDIITHRSNVQRQQIRQTFKSHFGRDLMTDLKSEISGDLARLILGLMMPPAHYDAKQLKKAMEGAGTDEKALIEILATRTNAEIRAINEAYKEDYHKSLEDALSSDTSGHFRRILISLATGHREEGGENLDQAREDAQVAAEILEIADTPSGDKTSLETRFMTILCTRSYPHLRRVFQEFIKMTNYDVEHTIKKEMSGDVRDAFVAIVQSVKNKPLFFADKLYKSMKGAGTDEKTLTRIMVSRSEIDLLNIRREFIEKYDKSLHQAIEGDTSGDFLKALLALCGGED
